Test results taken from patent US8632846B2, “Apparatus and methods for loading a drug eluting medical device” (Medtronic Vascular, Inc., priority 2010, dated 2014).
The name of at least one read-out is uncertain. At least one structure is not confirmed: it was looked up by name or label, or the drawing left a doubt.

Assay: solubility of sirolimus in solvents / dispersion media
Type: physicochemical
Description: Solution 524 is a homogeneous mixture in which therapeutic substance 112 dissolves within a solvent or a solvent mixture. In one embodiment, solution 524 includes a high-capacity solvent 528 which is an organic solvent that has a high capacity to dissolve therapeutic substance 112. High capacity as utilized herein is defined as an ability to dissolve therapeutic substance 112 at concentrations greater than 500 mg of substance per milliliter of solvent. Examples of high capacity drug dissolving solvents for sirolimus and similar substances include but are not limited to tetrahydrofuran (THF), di-chloromethane (DCM), chloroform, and di-methyl-sulfoxide (DMSO). In addition to the high-capacity solvent, solution 524 may include an excipient 526 in order to assist in drug elution. In one embodiment, excipient 526 may be a surfactant such as but not limited to sorbitan fatty acid esters such as sorbitan monooleate and sorbitan monolaurate, polysorbates such as polysorbate 20, polysorbate 60, and polysorbate 80, cyclodextrins such as 2-hydroxypropyl-beta-cyclodextrin and 2,6-di-O-methyl-beta-cyclodextrin, sodium dodecyl sulfate, octyl glucoside, and low molecular weight poly(ethylene glycol)s. In another embodiment, excipient 526 may be a hydrophilic agent such as but not limited to salts such as sodium chloride and other materials such as urea, citric acid, and ascorbic acid. In yet another embodiment, excipient 526 may be a stabilizer such as but not limited to butylated hydroxytoluene (BHT). Depending on the desired drug load, a low capacity solvent can also be chosen for its reduced solubility of therapeutic substance 112. Low capacity is defined as an ability to dissolve therapeutic substance 112 at concentrations typically below 500 mg of drug per milliliter solvent. Examples of low capacity drug dissolving solvents for sirolimus and similar substances include but are not limited to methanol, ethanol, propanol, acetonitrile, ethyl lactate, acetone, and solvent mixtures like tetrahydrafuran/water (9:1 weight ratio). […]

SMILES: CO[C@H]1C[C@@H]2CC[C@@H](C)[C@@](O)(O2)C(=O)C(=O)N2CCCC[C@H]2C(=O)O[C@H]([C@H](C)C[C@@H]2CC[C@@H](O)[C@H](OC)C2)CC(=O)[C@H](C)/C=C(\C)[C@@H](O)[C@@H](OC)C(=O)[C@H](C)C[C@H](C)/C=C/C=C/C=C/1C [sirolimus]
- ability to dissolve therapeutic substance (high capacity solvent) (high capacity solvents: tetrahydrofuran (THF), di-chloromethane (DCM), chloroform, di-methyl-sulfoxide (DMSO)): greater than 500 mg of substance per milliliter of solvent
- ability to dissolve therapeutic substance (low capacity solvent) (low capacity solvents: methanol, ethanol, propanol, acetonitrile, ethyl lactate, acetone, tetrahydrafuran/water (9:1 weight ratio)): below 500 mg of drug per milliliter solvent
- capacity of SCCO2 for solubilizing drug (supercritical carbon dioxide): low capacity
